Measurements from patent US8642597B2, “Pyrazole compounds for controlling invertebrate pests” (BASF SE, priority 2007, dated 2014).
Some entries share one result that the patent states for a list of compounds.

How the values were obtained:
Assay type in all cases: in vivo
[1] = system: Cowpea Aphid (aphis craccivora); assay: Cowpea aphid (aphis craccivora), spray on potted cowpea plants; conditions: 300 ppm; population reduction assessed after 24, 72 and 120 hours; in comparison with untreated controls
Experimental: The active compounds were formulated in 50:50 (vol:vol) acetone:water. The test solution was prepared at the day of use.
Potted cowpea plants colonized with 100-150 aphids of various stages were sprayed after the pest population had been recorded. Population reduction was assessed after 24, 72, and 120 hours.

[2] = system: Cotton Aphid (aphis gossypii, Mixed Life Stages); assay: Cotton aphid (aphis gossypii, mixed life stages), cotyledon dip test; conditions: 300 ppm; mortality counts after 5 days; in comparison with untreated controls
Description: (§1) The active compounds were formulated in 50:50 (vol:vol) acetone:water and 100 ppm Kinetica™ surfactant.
Cotton plants at the cotyledon stage (one plant per pot) were infested by placing a heavily infested leaf from the main colony on top of each cotyledon. The aphids were allowed to transfer to the host plant overnight, and the leaf used to transfer the aphids was removed. The cotyledons were dipped in the test solution and allowed to dry. After 5 days, mortality counts were made.

[3] = system: Green Peach Aphid (Myzus persicae, Mixed Life Stages); assay: Green peach aphid (Myzus persicae, mixed life stages), pepper leaf dip test; conditions: 300 ppm; after 5 days; in comparison with untreated controls
Description: as §1
Pepper plants in the 2nd leaf-pair stage (variety ‘California Wonder’) were infested with approximately 40 laboratory-reared aphids by placing infested leaf sections on top of the test plants. The leaf sections were removed after 24 hr. The leaves of the intact plants were dipped into gradient solutions of the test compound and allowed to dry. Test plants were maintained under fluorescent light (24 hour photoperiod) at about 25° C. and 20-40% relative humidity. Aphid mortality on the treated plants, relative to mortality on check plants, was determined after 5 days.

[4] = system: Silverleaf Whitefly (bemisia argentifolii, adult); assay: Silverleaf whitefly (bemisia argentifolii, adult), cotton cotyledon dip test; conditions: 300 ppm; 3 days after treatment; in comparison with untreated controls
Experimental: as §1
Selected cotton plants were grown to the cotyledon state (one plant per pot). The cotyledons were dipped into the test solution to provide complete coverage of the foliage and placed in a well-vented area to dry. Each pot with treated seedling was placed in a plastic cup and 10 to 12 whitefly adults (approximately 3-5 day old) were introduced. The insects were collected using an aspirator and an 0.6 cm, non-toxic Tygon® tubing (R-3603) connected to a barrier pipette tip. The tip, containing the collected insects, was then gently inserted into the soil containing the treated plant, allowing insects to crawl out of the tip to reach the foliage for feeding. The cups were covered with a reusable screened lid (150 micron mesh polyester screen PeCap from Tetko Inc). Test plants were maintained in the holding room at about 25° C. and 20-40% relative humidity for 3 days avoiding direct exposure to the fluorescent light (24 hour photoperiod) to prevent trapping of heat inside the cup. Mortality was assessed 3 days after treatment of the plants.

[5] = system: Vetch Aphid (Megoura viciae); assay: Vetch aphid (Megoura viciae), bean leaf disk microtiterplate test; conditions: concentration of the test solution 2500 mg/L; 6 days
Experimental: The active compounds were formulated in 1:3 (vol:vol) DMSO:water with different concentrations of formulated compounds.
Bean leaf disks were placed into microtiterplates filled with 0.8% agar-agar and 2.5 ppm OPUS™. The leaf disks were sprayed with 2.5 μl of the test solution and 5 to 8 adult aphids were placed into the microtiterplates which were then closed and kept at 23±1° C. and 50±5% relative humidity under fluorescent light for 6 days. Mortality was assessed on the basis of vital, reproduced aphids. Aphid mortality and fecundity was then visually assessed.

[6] = system: Mediterranean Fruitfly (Ceratitis capitata); assay: Activity against Mediterranean fruitfly (Ceratitis capitata), insect diet microtiter plate test; conditions: eggs treated with 2500 ppm; egg and larval mortality after 5 days
Experimental: The active compounds were formulated in 1:3 (vol:vol) DMSO:water.
For evaluating control of Mediterranean fruitfly the test unit consisted of microtiter plates containing an insect diet and 50 to 80 C. capitata eggs.
Different concentrations of formulated compounds were sprayed onto the insect diet at 5 μl, using a custom built micro atomizer, at two replications. After application, microtiter plates were incubated at 28±1° C. and 80±5% relative humidity for 5 days. Egg and larval mortality was then visually assessed.

[7] = system: Boll Weevil (Anthonomus grandis); assay: Boll weevil (Anthonomus grandis), insect diet microtiter plate test; conditions: concentration of the test solution 2500 mg/L; egg and larval mortality after 5 days
Experimental: The compounds were formulated in 75:25 (vol:vol) water:DMSO.
For evaluating control of boll weevil (Anthonomus grandis) the test unit consisted of 24-well-microtiter plates containing an insect diet and 20-30 A. grandis eggs. Different concentrations of formulated compounds were sprayed onto the insect diet at 20 μl, using a custom built micro atomizer, at two replications. After application, the microtiter plates were incubated at 23±1° C. and 50±5% relative humidity for 5 days. Egg and larval mortality was then visually assessed.

SMILES | mortality [1] | mortality [2] | mortality [3] | mortality [4] | mortality [5] | mortality [6] [%] | mortality [7]
O=C(Nc1cccnc1)c1cnn(-c2cccc(Cl)n2)c1C(F)(F)F [Compound 15] | at least 75% | at least 75% | at least 50% |  |  |  | 
Cn1cc(C(=O)Nc2cncc(F)c2)c(C(F)(F)F)n1 [Compound 38] | at least 75% | at least 75% |  |  |  |  | 
Cn1nc(C(=O)Nc2cccnc2)cc1C(F)(F)F [Compound 6] | at least 75% | at least 75% | at least 50% |  |  |  | 
Cn1cc(C(=O)Nc2cnccc2Cl)c(C(F)(F)F)n1 [Compound 51] |  | at least 75% |  |  |  |  | 
O=C(Nc1cccnc1)c1cnn(CC(F)(F)F)c1C(F)(F)F [Compound 26] | at least 75% | at least 75% | at least 50% | at least 50% | at least 80% |  | 
CCCn1ncc(C(=O)Nc2cccnc2)c1C(F)(F)F [Compound 45] | at least 75% | at least 75% | at least 50% |  |  |  | 
Cn1cc(Cl)c(C(=O)Nc2cccnc2)n1 [Compound 7] | at least 75% |  |  |  |  | 50 | 
Cc1cncc(NC(=O)c2cn(C)nc2C(F)(F)F)c1 [Compound 33] | at least 75% |  |  |  |  |  | 100%
CCN(C(=O)c1cnn(C)c1C(F)F)c1cccnc1 [Compound 35] | at least 75% | at least 75% | at least 50% | at least 50% |  |  | 
O=C(Nc1cccnc1)c1cnn(-c2ccccc2)c1C(F)(F)F [Compound 23] | at least 75% | at least 75% | at least 50% |  | at least 80% |  | 
N#Cc1c(C(=O)Nc2cccnc2)cnn1-c1ccc(Cl)cc1Cl [Compound 21] | at least 75% | at least 75% | at least 50% | at least 50% | at least 80% | 50 | 
Cn1cc(C(=O)N(Cc2ccccc2)c2cccnc2)c(C(F)(F)F)n1 [Compound 28] | at least 75% | at least 75% |  |  | at least 80% |  | 
CC(C)Cn1cc(C(=O)Nc2cccnc2)c(C(F)(F)F)n1 [Compound 40] | at least 75% | at least 75% | at least 50% |  |  |  | 
CC(C)c1cc(C(=O)Nc2cccnc2)n(C)n1 [Compound 66] | at least 75% | at least 75% | at least 50% |  | at least 80% |  | 100%
Cn1nc(C(F)(F)F)c(C(=O)Nc2cccnc2)c1Cl [Compound 27] |  |  | at least 50% |  |  |  | 
Cn1nc(C(=O)Nc2cccnc2)cc1Cl [Compound 5] | at least 75% | at least 75% | at least 50% |  |  |  | 
O=C(Nc1cccnc1)c1cnn(-c2ccc(Cl)cc2)c1C(F)(F)F [Compound 22] | at least 75% | at least 75% | at least 50% |  | at least 80% |  | at least 50%
Cn1cc(C(=O)Nc2cncc(C(F)(F)F)c2)c(C(F)(F)F)n1 [Compound 37] |  | at least 75% | at least 50% |  |  |  | 
Cn1ncc(Cl)c1C(=O)Nc1cccnc1 [Compound 63] |  |  |  |  |  | 50 | 

SMILES | mortality [1] | mortality [2] | mortality [3] | mortality [4] | mortality [5] | mortality [6] [%] | mortality [7]
Cc1ccncc1NC(=O)c1cn(C)nc1C(F)(F)F [Compound 41] |  | at least 75% | at least 50% |  |  |  | 
CCN(C(=O)c1cnn(CC(F)(F)F)c1C(F)(F)F)c1cccnc1 [Compound 49] |  | at least 75% | at least 50% | at least 50% |  |  | 
CCCn1cc(C(=O)Nc2cccnc2)c(C(F)(F)F)n1 [Compound 43] | at least 75% | at least 75% | at least 50% |  |  |  | 
O=C(Nc1cccnc1)c1cnn(-c2ccc(Cl)cn2)c1C(F)(F)F [Compound 32] |  | at least 75% | at least 50% |  |  |  | 
CCOc1nn(C)cc1C(=O)Nc1cccnc1 [Compound 44] | at least 75% | at least 75% |  |  |  |  | 
CCCc1cc(C(=O)Nc2cccnc2)n(C)n1 [Compound 69] | at least 75% | at least 75% | at least 50% |  | at least 80% |  | 100%
O=C(Nc1cccnc1)c1cnn(-c2ccc(Cl)cc2Cl)c1C(F)(F)F [Compound 24] | at least 75% | at least 75% | at least 50% |  | at least 80% |  | 
O=C(Nc1cccnc1)c1cn[nH]c1C(F)(F)F [Compound 46] | at least 75% | at least 75% | at least 50% | at least 50% |  |  | 
Cn1nc(-c2ccccc2)cc1C(=O)Nc1cccnc1 [Compound 9] | at least 75% |  |  |  | at least 80% |  | 
CC(C)CN(C(=O)c1cnn(CC(F)(F)F)c1C(F)(F)F)c1cccnc1 [Compound 50] |  | at least 75% | at least 50% | at least 50% |  |  | 
O=C(Nc1cccnc1)c1cnn(Cc2ccccc2)c1C(F)(F)F [Compound 16] | at least 75% | at least 75% | at least 50% | at least 50% | at least 80% |  | at least 50%
CC(C)(C)n1ncc(C(=O)Nc2cccnc2)c1C(F)(F)F [Compound 30] | at least 75% | at least 75% | at least 50% |  |  |  | at least 50%
CCn1cc(C(=O)Nc2cccnc2)c(C(F)(F)F)n1 [Compound 17] | at least 75% | at least 75% | at least 50% |  | at least 80% |  | 
CC(C)n1cc(C(=O)Nc2cccnc2)c(C(F)(F)F)n1 [Compound 39] | at least 75% | at least 75% | at least 50% |  |  |  | 
C=CCn1cc(C(=O)Nc2cccnc2)c(C(F)(F)F)n1 [Compound 19] | at least 75% | at least 75% | at least 50% |  | at least 80% |  | 100%
Cn1cc(C(=O)Nc2cccnc2)c(C2CC2)n1 [Compound 47] | at least 75% | at least 75% | at least 50% |  |  |  | 
CCc1cc(C(=O)Nc2cccnc2)n(C)n1 [Compound 67] | at least 75% | at least 75% | at least 50% |  | at least 80% |  | 
Cn1nc(C(F)(F)F)cc1C(=O)Nc1cccnc1 [Compound 11] | at least 75% | at least 75% | at least 50% |  | at least 80% |  | at least 50%
